Assay results: paper PMC5325215

Molecular target: T1, 3 x FLAG tagged full-length FILIP (rat L-FILIP) (rat) (UniProt Q8K4T4)
T1 sequence: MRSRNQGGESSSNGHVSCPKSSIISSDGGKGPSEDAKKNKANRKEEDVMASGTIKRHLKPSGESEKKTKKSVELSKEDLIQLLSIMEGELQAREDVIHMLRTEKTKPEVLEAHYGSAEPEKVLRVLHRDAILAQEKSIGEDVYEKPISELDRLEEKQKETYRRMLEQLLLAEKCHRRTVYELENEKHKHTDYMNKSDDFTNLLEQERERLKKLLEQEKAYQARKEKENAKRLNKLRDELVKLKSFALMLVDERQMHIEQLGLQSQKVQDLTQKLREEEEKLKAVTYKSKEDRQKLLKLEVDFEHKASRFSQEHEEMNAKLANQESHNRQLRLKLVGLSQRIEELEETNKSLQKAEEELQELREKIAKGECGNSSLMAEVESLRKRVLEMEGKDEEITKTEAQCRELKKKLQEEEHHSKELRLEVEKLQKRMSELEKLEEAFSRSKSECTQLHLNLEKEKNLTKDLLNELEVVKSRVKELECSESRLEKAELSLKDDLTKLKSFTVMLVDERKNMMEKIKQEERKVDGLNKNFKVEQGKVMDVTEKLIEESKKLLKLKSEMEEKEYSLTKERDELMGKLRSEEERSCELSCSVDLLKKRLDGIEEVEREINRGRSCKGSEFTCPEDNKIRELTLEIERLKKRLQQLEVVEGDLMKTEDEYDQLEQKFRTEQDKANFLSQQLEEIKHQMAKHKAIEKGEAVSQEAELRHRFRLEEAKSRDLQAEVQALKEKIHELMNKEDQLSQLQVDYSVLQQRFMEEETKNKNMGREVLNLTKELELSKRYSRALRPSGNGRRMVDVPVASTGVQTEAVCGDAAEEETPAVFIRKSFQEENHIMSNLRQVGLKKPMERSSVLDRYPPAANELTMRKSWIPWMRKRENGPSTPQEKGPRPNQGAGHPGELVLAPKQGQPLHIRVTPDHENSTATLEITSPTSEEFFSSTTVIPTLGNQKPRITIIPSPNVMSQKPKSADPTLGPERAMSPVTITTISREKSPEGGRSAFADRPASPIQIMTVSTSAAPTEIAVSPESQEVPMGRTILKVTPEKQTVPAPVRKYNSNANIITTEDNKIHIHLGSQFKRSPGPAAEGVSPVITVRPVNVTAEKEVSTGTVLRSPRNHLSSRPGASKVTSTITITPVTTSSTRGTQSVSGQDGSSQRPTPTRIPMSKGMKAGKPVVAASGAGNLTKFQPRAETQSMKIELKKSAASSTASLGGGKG
Assay: co-IP; COS-7 cells transfected with FLAG-tagged FILIP or deletion mutants; immunoprecipitation with anti-FLAG M2 on Protein G Dynabeads, 4°C, 3 hours; blots with anti-Hsc70 or anti-NMHCIIb; in Fig 4E also with expression of Hsc70 or Hsc70 K71M

binding: binds
Substance: non-muscle myosin IIb (endogenous, COS-7 cells)

Results are given in words; binding and its absence hold for the method and conditions named. In cells and extracts the contact can be indirect. A result given as binding can be weak or reduced; the word gives no strength. Tags and fused reporters may be left off the sequences shown.
